# Laboratory results from article PMC9108620.
# By UniProt entry, the sequences of proteins in these tests, tags left out. Where a name states a change or a piece, a line headed by the entry shows the natural chain unless it says otherwise.
# UniProt Q9NYA1: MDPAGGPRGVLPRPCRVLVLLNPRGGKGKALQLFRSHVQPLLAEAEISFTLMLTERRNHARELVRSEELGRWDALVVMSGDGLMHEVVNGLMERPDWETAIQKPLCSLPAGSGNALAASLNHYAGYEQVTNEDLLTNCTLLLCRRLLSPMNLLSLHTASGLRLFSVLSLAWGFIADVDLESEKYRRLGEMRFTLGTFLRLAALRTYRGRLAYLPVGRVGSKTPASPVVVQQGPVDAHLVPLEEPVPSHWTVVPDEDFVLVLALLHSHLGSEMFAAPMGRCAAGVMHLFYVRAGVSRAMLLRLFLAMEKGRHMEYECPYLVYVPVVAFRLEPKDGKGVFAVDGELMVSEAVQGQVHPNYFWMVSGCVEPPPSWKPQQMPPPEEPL
# UniProt Q99816: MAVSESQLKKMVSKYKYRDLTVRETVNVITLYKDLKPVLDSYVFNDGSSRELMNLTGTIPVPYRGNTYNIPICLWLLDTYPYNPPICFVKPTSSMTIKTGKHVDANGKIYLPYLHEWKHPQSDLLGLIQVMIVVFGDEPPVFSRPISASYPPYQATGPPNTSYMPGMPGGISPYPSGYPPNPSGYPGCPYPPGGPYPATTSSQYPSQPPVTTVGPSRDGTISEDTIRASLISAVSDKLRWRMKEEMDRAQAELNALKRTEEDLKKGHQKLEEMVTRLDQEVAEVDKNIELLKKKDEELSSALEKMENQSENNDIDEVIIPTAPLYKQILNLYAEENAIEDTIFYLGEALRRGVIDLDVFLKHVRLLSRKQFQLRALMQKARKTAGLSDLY
# Assays:
# Assay in all cases: pull-down; GFP-Trap pulldown from HeyA8 cells transfected with wild-type or PTAP-mutated SPHK1 plasmids; TSG101 detected by western blotting
# [1] = target: GFP-tagged SPHK1, PTAP motif mutated to ATAP (UniProt Q9NYA1)
# [2] = target: GFP-tagged SPHK1, PTAP motif mutated to PAAP (UniProt Q9NYA1)
# [3] = target: GFP-tagged SPHK1, PTAP motif mutated to PTAA (UniProt Q9NYA1)
substance,measurement,setting,value
"tumor susceptibility gene 101 protein (TSG101), endogenous in HeyA8 cells (from UniProt Q99816 1-390)",binding,[1],no binding
same,binding,[2],binds
same,binding,[3],no binding

# Results are given in words; binding and its absence hold for the method and conditions named. Binding seen in cells or lysates may run through a third protein. For part of these data: Binding can be weak; no strength is given.
